Results are given in words; binding and its absence hold for the method and conditions named. In cells and extracts the contact can be indirect. Here binding means that the protein was enriched with, or labelled near, the bait; the list need not be complete. For part of these data: Tags and fused reporters may be left off the sequences shown.
Columns and labels:
TAP-PSF-1 (C. elegans) = biological target: T1, TAP-PSF-1 (C. elegans) (UniProt Q22019); assay: affinity purification with mass spectrometry; TAP-PSF-1 isolated from C. elegans embryo extracts on beads coupled to rabbit IgG; worms fed RNAi (Table S3)
T1 sequence: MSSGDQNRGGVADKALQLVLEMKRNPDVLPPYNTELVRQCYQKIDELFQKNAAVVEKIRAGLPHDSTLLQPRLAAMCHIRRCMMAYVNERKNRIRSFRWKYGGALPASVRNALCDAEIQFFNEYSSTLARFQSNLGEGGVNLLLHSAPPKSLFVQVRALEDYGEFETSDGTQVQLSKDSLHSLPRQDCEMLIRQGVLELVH

GFP-PSF-1 (C. elegans) = biological target: T2, GFP-PSF-1 (C. elegans) (UniProt Q22019); assay: co-IP + affinity purification with mass spectrometry; GFP-tagged bait isolated on anti-GFP beads (GFP-Trap) from C. elegans embryo extracts, 4°C, 100 mM HEPES-KOH pH 7.9, 100 mM potassium acetate, DNA digested with nuclease; worms untreated or fed RNAi (cdc-45, npl-4, ctf-4, tim-1, clsp-1); immunoblotting and mass spectrometry
T2 sequence: T1 sequence

binding (TAP-PSF-1 (C. elegans)) | binding (GFP-PSF-1 (C. elegans)) | Substance
binds | binds | DNSN-1 (C. elegans (endogenous in embryos))
– | binds | MUS-101 (C. elegans (endogenous in embryos))
